Results from doi:10.1101/2025.11.23.689998.
No constants are given. Whether binding was seen depends on the method and setting. Binding seen in cells or lysates may run through a third protein. Here binding means that the protein was enriched with, or labelled near, the bait; the list need not be complete.

Sequences of proteins named here, by UniProt entry; tags and fusion partners are left off.
UniProt Q9FIJ0: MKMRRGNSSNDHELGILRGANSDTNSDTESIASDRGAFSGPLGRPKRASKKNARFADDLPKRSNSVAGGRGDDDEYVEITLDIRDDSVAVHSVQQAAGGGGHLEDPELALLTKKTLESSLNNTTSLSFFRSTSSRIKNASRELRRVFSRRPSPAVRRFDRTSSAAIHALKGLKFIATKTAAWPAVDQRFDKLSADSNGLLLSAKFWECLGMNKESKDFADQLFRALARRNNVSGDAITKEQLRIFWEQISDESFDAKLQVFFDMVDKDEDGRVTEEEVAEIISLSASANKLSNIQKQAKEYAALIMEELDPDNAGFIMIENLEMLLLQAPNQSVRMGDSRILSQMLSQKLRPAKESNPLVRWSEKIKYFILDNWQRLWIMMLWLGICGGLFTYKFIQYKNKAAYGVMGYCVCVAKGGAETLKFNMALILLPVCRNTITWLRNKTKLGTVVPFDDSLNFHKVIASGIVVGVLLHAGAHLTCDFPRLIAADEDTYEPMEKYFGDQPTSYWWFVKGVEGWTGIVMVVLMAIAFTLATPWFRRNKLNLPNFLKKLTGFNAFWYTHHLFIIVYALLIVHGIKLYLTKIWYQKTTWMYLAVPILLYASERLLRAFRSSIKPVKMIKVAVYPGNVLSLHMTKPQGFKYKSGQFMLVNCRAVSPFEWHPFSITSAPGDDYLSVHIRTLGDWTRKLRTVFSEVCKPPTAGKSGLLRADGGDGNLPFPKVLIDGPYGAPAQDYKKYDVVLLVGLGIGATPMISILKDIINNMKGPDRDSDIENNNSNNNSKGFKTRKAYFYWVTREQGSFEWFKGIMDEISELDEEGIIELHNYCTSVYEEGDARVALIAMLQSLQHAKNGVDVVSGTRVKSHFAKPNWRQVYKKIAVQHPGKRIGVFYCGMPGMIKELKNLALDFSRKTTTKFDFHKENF
UniProt Q43125: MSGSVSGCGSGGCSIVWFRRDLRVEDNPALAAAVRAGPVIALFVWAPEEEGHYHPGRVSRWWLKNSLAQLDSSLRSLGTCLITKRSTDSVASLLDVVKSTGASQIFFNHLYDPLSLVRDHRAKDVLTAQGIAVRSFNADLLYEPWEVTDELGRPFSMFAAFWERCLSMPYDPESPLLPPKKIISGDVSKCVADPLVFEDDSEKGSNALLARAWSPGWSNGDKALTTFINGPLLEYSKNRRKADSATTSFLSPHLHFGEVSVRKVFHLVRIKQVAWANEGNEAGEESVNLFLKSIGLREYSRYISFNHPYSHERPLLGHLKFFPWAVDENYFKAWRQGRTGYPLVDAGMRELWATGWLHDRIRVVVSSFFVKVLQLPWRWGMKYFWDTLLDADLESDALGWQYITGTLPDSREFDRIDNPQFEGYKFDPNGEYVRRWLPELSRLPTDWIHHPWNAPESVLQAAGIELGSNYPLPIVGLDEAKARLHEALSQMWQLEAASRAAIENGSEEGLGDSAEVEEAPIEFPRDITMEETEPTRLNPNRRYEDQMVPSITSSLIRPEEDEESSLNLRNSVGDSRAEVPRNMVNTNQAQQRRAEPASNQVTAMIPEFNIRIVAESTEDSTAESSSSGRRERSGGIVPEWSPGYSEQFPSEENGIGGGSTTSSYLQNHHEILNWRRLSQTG
UniProt F4I3M3: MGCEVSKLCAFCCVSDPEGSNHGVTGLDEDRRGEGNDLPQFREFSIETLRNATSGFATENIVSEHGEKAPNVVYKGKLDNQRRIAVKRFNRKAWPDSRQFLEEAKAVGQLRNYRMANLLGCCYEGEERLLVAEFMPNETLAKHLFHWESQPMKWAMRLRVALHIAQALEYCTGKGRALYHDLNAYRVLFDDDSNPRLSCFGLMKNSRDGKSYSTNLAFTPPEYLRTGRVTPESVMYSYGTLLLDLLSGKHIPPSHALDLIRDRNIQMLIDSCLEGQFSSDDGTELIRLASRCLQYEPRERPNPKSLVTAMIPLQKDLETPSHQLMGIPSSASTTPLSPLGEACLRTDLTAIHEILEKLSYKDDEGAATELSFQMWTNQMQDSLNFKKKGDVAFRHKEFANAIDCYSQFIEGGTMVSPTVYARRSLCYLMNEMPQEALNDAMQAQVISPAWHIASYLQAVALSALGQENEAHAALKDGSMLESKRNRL
UniProt Q0WLB5: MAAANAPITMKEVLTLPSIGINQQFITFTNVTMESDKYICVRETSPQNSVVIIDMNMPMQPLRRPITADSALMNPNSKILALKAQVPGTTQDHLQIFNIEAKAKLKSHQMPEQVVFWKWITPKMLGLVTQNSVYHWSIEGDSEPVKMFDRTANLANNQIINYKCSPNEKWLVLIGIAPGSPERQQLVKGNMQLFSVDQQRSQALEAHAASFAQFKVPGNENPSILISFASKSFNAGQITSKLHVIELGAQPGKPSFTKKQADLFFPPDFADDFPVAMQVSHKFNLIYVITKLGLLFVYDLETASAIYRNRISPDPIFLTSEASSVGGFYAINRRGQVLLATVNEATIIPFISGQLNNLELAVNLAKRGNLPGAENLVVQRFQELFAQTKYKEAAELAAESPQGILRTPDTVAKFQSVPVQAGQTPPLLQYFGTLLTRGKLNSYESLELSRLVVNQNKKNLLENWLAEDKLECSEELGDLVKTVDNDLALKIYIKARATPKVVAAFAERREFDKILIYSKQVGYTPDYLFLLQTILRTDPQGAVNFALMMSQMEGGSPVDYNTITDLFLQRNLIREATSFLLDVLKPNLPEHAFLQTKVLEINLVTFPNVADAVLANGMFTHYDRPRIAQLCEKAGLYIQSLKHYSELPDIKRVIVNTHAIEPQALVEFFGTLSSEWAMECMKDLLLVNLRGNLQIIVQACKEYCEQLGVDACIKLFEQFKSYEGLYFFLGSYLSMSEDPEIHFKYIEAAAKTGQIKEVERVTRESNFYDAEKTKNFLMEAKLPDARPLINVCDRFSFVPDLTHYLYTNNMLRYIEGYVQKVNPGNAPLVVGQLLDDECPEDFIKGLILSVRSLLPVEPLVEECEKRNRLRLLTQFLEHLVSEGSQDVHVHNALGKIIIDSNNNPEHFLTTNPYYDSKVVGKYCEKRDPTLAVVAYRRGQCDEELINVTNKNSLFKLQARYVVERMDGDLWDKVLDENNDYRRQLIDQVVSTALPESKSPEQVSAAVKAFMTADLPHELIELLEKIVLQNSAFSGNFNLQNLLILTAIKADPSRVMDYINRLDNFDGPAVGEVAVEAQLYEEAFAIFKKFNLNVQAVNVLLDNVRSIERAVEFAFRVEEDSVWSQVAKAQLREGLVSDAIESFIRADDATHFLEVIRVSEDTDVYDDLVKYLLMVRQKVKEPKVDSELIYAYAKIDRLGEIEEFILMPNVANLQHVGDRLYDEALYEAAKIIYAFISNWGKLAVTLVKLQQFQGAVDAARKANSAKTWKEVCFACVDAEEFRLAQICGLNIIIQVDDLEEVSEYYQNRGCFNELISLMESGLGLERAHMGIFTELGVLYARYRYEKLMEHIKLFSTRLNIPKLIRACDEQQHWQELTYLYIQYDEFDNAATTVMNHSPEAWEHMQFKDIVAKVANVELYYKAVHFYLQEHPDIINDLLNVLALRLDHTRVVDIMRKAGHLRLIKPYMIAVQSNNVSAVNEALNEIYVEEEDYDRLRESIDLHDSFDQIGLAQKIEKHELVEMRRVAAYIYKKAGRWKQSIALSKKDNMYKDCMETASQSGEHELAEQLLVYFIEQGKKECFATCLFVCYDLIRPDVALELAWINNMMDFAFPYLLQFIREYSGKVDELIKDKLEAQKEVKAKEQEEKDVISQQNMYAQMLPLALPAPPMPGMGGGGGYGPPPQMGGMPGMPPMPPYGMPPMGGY
UniProt Q0WNJ6: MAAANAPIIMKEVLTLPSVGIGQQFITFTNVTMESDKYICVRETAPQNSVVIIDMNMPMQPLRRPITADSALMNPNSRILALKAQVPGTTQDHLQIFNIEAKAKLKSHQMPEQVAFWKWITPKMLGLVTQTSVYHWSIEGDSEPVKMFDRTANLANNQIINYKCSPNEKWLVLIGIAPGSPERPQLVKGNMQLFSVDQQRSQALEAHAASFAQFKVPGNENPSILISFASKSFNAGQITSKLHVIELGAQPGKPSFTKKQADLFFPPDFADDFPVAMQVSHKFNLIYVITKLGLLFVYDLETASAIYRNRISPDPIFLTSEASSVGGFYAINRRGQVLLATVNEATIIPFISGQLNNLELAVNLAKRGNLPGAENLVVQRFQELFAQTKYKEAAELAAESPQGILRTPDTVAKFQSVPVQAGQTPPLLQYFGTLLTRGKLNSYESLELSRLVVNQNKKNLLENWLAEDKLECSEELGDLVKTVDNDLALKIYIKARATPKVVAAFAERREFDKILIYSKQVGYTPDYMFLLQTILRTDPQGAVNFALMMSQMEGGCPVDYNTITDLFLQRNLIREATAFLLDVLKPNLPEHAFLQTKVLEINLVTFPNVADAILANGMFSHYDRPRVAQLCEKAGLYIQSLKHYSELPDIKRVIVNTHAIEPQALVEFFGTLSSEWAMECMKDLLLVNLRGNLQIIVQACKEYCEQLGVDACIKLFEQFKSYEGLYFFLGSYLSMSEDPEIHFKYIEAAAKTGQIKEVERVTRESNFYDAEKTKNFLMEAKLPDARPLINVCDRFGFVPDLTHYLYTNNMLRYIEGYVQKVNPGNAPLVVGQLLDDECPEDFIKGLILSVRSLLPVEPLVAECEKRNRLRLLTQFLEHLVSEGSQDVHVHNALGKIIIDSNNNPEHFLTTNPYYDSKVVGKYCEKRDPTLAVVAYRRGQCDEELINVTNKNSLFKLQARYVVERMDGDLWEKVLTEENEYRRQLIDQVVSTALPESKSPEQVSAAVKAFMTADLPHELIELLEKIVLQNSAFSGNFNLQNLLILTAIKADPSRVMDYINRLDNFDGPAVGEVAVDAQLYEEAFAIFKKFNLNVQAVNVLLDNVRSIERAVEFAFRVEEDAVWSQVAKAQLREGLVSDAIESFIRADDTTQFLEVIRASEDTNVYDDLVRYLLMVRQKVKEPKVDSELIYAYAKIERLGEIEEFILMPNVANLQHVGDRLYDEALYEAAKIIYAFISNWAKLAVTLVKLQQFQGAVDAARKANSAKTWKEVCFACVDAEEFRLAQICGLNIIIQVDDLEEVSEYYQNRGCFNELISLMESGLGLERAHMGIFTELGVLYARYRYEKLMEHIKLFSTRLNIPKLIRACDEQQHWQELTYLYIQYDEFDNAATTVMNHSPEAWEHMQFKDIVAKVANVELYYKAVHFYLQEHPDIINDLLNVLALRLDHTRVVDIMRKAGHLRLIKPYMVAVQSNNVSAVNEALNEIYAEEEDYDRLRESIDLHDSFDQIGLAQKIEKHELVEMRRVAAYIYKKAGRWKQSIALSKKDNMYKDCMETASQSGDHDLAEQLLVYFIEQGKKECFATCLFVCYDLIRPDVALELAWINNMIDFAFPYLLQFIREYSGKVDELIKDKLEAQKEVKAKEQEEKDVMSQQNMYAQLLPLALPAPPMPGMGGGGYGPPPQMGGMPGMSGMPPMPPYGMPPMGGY

Tests used:
[1] = target: HA-tagged RBOHD (RESPIRATORY BURST OXIDASE PROTEIN D) (Arabidopsis thaliana) (UniProt Q9FIJ0); experiment: affinity purification with mass spectrometry
[2] = target: phyB-miniTurbo (phyB CDS - miniTurbo-sCFP3A-3FLAG) (Arabidopsis thaliana) (UniProt P14713); experiment: proximity labelling

Q: With “BRASSINOSTEROID … 1 (from UniProt O22476 24-1196) (receptor)” as the substance, how does the binding [1] read?
A: binds

Q: “CRYPTOCHROME 1 (from UniProt Q43125 1-681)” was tested. Which binding [2] did it give?
A: binds

Q: For “LEUCINE-RICH REPEAT (LRR) like receptor At5g07910 (from UniProt F4K9I0)”, which binding [1] is on record?
A: binds

Q: With “RBOHD (RESPIRATORY BURST OXIDASE PROTEIN D) (from UniProt Q9FIJ0 1-921)” as the substance, how does the binding [2] read?
A: binds

Q: “SERINE/THREONINE-PROTEIN KINASE BSK7 (At1g63500) (from UniProt F4I3M3 1-487) (enzyme)” was tested. Which binding [1] did it give?
A: binds

Q: With “protein involved in RBOHD recycling via clathrin mediated endocytosis (At3g08530) (from UniProt Q0WLB5 1-1703)” as the substance, how does the binding [1] read?
A: binds

Q: With “protein involved in RBOHD recycling via clathrin mediated endocytosis (At3g11130) (from UniProt Q0WNJ6 1-1705)” as the substance, how does the binding [1] read?
A: binds
